Experimental data reported in publication PMC7771966, “Quantitative glycoproteomics reveals cellular substrate selectivity of the ER protein quality control sensors UGGT1 and UGGT2” (eLife, 2020).
No constants are given. Whether binding was seen depends on the method and setting. In cells and extracts the contact can be indirect. A yes stands for co-enrichment or nearness to the bait. Other partners may have been found.

Sequences of proteins named here, by UniProt entry; tags and fusion partners are left off. Residues count along the entry.
UniProt P15253, residues 18-418: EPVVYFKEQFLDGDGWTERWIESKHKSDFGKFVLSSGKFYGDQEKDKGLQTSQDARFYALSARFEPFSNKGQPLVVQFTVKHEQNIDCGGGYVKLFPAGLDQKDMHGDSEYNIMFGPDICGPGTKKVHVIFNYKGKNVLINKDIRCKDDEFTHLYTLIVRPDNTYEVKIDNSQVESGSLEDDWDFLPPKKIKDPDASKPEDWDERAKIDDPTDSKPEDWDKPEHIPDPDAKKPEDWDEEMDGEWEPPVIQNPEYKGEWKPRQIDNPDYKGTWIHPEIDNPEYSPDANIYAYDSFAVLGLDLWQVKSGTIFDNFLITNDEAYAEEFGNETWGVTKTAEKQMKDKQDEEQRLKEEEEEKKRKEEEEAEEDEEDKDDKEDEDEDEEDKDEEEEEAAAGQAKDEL
UniProt Q04900, residues 24-197: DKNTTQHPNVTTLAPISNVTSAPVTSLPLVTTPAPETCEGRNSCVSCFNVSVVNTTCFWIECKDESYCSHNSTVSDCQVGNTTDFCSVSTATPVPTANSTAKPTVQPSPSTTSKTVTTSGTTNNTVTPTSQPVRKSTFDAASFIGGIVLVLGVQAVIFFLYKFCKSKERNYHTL
UniProt P54802, residues 24-743: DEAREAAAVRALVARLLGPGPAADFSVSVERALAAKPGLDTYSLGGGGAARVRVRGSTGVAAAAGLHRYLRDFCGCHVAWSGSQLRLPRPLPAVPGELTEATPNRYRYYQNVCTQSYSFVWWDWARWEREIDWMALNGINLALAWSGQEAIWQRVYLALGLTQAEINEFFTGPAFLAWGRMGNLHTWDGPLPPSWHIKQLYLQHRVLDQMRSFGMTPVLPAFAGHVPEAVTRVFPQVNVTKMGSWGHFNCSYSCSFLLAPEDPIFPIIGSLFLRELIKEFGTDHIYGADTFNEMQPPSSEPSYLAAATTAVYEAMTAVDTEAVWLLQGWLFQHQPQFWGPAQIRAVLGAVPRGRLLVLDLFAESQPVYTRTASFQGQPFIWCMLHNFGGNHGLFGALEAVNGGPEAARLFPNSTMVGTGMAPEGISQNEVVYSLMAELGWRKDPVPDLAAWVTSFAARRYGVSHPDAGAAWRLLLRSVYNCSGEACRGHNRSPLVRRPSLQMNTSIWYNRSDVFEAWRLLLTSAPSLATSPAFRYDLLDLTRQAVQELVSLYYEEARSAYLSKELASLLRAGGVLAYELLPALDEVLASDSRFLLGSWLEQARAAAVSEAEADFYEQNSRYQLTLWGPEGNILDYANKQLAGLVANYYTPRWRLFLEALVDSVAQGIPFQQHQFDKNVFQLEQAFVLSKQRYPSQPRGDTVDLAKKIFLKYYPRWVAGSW
UniProt O15118, residues 23-1278: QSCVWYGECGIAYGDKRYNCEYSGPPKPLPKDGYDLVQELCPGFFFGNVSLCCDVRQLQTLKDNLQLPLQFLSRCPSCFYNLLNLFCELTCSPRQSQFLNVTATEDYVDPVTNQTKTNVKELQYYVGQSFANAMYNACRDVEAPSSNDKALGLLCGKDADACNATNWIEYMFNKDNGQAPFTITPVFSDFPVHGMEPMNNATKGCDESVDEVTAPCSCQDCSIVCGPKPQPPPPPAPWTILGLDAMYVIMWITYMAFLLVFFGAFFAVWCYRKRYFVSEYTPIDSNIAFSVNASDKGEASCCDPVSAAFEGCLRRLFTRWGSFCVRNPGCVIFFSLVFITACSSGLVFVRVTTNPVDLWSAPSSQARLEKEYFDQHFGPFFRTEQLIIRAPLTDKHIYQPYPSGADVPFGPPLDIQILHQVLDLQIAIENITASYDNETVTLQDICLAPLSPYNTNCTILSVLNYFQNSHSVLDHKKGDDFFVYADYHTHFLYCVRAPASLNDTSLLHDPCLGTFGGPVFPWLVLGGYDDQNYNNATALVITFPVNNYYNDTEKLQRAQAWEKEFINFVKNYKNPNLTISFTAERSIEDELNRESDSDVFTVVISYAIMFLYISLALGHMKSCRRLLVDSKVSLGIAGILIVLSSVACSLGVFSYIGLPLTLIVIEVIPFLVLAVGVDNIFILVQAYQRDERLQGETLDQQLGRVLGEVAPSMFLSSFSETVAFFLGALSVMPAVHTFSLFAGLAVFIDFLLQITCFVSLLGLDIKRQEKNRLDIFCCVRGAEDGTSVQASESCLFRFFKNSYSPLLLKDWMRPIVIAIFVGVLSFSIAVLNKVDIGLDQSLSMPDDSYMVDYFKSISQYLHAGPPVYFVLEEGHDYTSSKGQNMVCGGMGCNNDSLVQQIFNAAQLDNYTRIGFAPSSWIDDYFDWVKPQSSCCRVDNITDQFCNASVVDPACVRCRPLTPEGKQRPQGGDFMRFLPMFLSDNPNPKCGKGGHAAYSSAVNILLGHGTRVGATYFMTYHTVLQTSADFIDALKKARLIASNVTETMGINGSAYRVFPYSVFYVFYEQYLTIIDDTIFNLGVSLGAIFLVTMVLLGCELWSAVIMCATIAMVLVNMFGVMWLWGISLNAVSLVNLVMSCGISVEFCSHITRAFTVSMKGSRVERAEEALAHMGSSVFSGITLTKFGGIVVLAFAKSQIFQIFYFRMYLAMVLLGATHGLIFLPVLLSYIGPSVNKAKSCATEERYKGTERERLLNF
UniProt P11717, residues 41-2491: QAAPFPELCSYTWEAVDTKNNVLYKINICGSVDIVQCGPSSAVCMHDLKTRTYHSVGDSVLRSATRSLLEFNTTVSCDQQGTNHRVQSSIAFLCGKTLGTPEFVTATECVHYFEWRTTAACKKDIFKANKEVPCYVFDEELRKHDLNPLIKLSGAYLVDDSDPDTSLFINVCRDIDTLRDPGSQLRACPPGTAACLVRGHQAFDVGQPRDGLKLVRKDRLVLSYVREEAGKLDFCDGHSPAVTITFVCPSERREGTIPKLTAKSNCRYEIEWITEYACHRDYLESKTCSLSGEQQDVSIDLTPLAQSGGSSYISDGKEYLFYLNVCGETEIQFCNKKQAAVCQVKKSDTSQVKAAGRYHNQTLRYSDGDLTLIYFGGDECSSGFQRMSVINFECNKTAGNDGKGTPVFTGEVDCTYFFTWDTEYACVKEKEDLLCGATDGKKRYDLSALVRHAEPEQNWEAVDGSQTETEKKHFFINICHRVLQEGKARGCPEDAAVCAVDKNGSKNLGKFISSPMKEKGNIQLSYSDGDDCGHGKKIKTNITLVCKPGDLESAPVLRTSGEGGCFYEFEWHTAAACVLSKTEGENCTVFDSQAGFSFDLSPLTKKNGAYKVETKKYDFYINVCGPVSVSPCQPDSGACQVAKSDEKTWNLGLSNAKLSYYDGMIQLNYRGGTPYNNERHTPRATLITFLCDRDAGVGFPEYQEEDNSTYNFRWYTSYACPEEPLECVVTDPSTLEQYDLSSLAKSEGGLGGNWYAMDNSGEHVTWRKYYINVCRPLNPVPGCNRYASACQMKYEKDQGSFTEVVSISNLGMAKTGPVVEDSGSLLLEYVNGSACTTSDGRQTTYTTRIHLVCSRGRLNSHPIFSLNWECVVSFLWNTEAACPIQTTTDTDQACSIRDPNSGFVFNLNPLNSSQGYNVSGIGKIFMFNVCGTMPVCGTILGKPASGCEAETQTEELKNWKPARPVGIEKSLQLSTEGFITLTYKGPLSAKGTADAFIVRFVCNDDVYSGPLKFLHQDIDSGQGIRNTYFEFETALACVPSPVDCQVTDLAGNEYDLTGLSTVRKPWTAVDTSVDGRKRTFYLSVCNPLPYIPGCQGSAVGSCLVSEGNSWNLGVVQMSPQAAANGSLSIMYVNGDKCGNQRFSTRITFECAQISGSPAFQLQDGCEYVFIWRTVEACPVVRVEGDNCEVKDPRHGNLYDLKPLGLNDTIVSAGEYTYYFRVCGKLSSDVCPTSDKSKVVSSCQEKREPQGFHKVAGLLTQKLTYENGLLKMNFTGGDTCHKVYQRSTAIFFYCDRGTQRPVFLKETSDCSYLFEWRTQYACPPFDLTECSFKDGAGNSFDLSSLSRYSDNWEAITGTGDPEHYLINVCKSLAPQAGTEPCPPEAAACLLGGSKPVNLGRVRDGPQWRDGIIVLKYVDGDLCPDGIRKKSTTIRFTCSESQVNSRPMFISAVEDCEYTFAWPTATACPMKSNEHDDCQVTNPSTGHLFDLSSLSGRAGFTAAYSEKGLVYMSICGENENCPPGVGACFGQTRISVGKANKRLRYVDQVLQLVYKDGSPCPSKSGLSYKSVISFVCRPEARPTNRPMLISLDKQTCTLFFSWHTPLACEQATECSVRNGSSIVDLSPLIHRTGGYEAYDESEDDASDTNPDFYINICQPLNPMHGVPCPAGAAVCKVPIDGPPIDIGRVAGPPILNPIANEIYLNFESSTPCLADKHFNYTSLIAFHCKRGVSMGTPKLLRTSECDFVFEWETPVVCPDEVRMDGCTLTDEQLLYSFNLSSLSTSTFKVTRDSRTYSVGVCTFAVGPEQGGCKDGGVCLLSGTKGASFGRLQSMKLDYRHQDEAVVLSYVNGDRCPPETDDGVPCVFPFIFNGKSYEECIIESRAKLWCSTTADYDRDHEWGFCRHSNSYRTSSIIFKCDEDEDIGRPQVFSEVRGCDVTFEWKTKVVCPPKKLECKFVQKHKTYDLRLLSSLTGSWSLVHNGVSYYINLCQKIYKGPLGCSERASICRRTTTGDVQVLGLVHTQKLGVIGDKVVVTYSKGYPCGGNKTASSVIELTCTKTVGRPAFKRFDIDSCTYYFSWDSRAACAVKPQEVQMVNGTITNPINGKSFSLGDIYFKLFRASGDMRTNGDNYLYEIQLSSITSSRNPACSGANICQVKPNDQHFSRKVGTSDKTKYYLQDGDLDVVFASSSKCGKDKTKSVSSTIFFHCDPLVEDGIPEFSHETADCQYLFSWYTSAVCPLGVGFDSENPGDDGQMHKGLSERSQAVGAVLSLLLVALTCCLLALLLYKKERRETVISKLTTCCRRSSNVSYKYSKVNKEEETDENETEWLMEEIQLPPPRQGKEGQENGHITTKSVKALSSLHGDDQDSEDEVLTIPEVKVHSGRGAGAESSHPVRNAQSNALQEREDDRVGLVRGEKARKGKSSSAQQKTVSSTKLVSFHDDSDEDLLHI
UniProt P08069, residues 31-1367: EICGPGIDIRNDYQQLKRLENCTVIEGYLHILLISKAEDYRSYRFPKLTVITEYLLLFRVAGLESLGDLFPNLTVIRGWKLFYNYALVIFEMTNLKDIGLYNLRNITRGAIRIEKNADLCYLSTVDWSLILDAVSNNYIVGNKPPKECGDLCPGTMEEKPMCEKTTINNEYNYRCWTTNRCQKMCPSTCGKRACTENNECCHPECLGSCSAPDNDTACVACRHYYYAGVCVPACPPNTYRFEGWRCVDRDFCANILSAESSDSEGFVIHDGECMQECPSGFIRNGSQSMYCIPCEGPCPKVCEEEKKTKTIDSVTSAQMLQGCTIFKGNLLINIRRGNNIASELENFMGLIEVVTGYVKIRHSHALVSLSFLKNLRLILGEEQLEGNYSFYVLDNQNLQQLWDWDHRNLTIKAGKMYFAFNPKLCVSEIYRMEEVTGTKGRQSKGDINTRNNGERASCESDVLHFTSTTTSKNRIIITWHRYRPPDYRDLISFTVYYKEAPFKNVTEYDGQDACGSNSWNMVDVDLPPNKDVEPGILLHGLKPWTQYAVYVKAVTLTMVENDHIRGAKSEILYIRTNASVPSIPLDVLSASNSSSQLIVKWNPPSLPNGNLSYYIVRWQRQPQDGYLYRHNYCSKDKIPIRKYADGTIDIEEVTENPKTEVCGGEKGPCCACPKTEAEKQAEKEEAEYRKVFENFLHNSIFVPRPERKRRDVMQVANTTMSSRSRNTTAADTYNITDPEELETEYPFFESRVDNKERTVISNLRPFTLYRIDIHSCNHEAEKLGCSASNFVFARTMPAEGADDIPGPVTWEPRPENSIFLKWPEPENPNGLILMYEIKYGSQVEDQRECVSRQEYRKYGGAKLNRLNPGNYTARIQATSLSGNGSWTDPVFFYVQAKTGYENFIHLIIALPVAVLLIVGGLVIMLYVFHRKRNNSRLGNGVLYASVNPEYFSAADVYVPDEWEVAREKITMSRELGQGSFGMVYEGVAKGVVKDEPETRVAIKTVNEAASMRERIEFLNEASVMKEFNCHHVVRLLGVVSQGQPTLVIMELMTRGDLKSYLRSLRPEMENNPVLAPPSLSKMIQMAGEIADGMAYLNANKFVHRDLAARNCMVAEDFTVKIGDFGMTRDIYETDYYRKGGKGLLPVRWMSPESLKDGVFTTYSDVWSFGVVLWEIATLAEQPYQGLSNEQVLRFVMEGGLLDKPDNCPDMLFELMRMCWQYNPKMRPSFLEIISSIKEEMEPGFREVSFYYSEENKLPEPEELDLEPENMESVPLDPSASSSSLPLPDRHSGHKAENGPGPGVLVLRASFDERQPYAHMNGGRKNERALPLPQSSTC

biological target: glutathione S-transferase-calreticulin (GST-CRT) (UniProt P15253); test: affinity purification with mass spectrometry; GST-CRT or GST-CRT-Y109A (100 ug) on glutathione beads, 14 h at 4 C with pre-cleared lysate (20 mM MES, 100 mM NaCl, 30 mM Tris pH 7.5, 0.5% Triton X-100) of ALG6-/-, ALG6/UGGT1-/- or ALG6/UGGT2-/- HEK293-EBNA1-6E cells treated with 500 uM DNJ for 1 h; TMT labelling, PNGaseF; hits at threefold or more GST-CRT over GST-CRT-Y109A; only the target purified

binding	Molecule
binds	CD164 (from UniProt Q04900 24-197)
binds	Integrin β-1 (from UniProt P05556 21-798)
binds	NAGLU (from UniProt P54802 24-743) (enzyme)
binds	NPC1 (from UniProt O15118 23-1278)
binds	Nuclear pore membrane glycoprotein 210 (NUP210) (from UniProt Q8TEM1 27-1887)
binds	cation-independent mannose-6-phosphate receptor (CI-M6PR) (from UniProt P11717 41-2491)
binds	insulin-like growth factor type one receptor (IGF-1R) (from UniProt P08069 31-1367)

biological target: glutathione S-transferase-calreticulin (GST-CRT) (UniProt P15253); test: as above; remark: another data set of the same source

binding	Molecule
binds	FUCA1 (enzyme, UniProt P04066 32-466, monoglucosylated N-glycans (reglucosylated by the UGGTs; sites not stated)) QPPRRYTPDWPSLDSRPLPAWFDEAKFGVFIHWGVFSVPAWGSEWFWWHWQGEGRPQYQRFMRDNYPPGFSYADFGPQFTARFFHPEEWADLFQAAGAKYVVLTTKHHEGFTNWPSPVSWNWNSKDVGPHRDLVGELGTALRKRNIRYGLYHSLLEWFHPLYLLDKKNGFKTQHFVSAKTMPELYDLVNSYKPDLIWSDGEWECPDTYWNSTNFLSWLYNDSPVKDEVVVNDRWGQNCSCHHGGYYNCEDKFKPQSLPDHKWEMCTSIDKFSWGYRRDMALSDVTEESEIISELVQTVSLGGNYLLNIGPTKDGLIVPIFQERLLAVGKWLSINGEAIYASKPWRVQWEKNTTSVWYTSKGSAVYAIFLHWPENGVLNLESPITTSTTKITMLGIQGDLKWSTDPDKGLFISLPQLPPSAVPAEFAWTIKLTGVK
binds	ectonucleotide pyrophosphatase/phosphodiesterase family member 1 (ENPP1) (enzyme, human (endogenous in HEK293-EBNA1-6E), UniProt P22413 1-925, looked up, monoglucosylated N-glycans (reglucosylated by the UGGTs; sites not stated), ectonucleotide pyrophosphatase/phosphodiesterase family member 1, human, endogenous; source: endogenous, lysate of CRISPR-edited HEK293-EBNA1-6E cells (ALG6-/- background), DNJ treated) MERDGCAGGGSRGGEGGRAPREGPAGNGRDRGRSHAAEAPGDPQAAASLLAPMDVGEEPLEKAARARTAKDPNTYKVLSLVLSVCVLTTILGCIFGLKPSCAKEVKSCKGRCFERTFGNCRCDAACVELGNCCLDYQETCIEPEHIWTCNKFRCGEKRLTRSLCACSDDCKDKGDCCINYSSVCQGEKSWVEEPCESINEPQCPAGFETPPTLLFSLDGFRAEYLHTWGGLLPVISKLKKCGTYTKNMRPVYPTKTFPNHYSIVTGLYPESHGIIDNKMYDPKMNASFSLKSKEKFNPEWYKGEPIWVTAKYQGLKSGTFFWPGSDVEINGIFPDIYKMYNGSVPFEERILAVLQWLQLPKDERPHFYTLYLEEPDSSGHSYGPVSSEVIKALQRVDGMVGMLMDGLKELNLHRCLNLILISDHGMEQGSCKKYIYLNKYLGDVKNIKVIYGPAARLRPSDVPDKYYSFNYEGIARNLSCREPNQHFKPYLKHFLPKRLHFAKSDRIEPLTFYLDPQWQLALNPSERKYCGSGFHGSDNVFSNMQALFVGYGPGFKHGIEADTFENIEVYNLMCDLLNLTPAPNNGTHGSLNHLLKNPVYTPKHPKEVHPLVQCPFTRNPRDNLGCSCNPSILPIEDFQTQFNLTVAEEKIIKHETLPYGRPRVLQKENTICLLSQHQFMSGYSQDILMPLWTSYTVDRNDSFSTEDFSNCLYQDFRIPLSPVHKCSFYKNNTKVSYGFLSPPQLNKNSSGIYSEALLTTNIVPMYQSFQVIWRYFHDTLLRKYAEERNGVNVVSGPVFDFDYDGRCDSLENLRQKRRVIRNQEILIPTHFFIVLTSCKDTSQTPLHCENLDTLAFILPHRTDNSESCVHGKHDSSWVEELLMLHRARITDVEHITGLSFYQQRKEPVSDILKLKTHLPTFSQED
binds	α-N-acetylgalactosaminidase (enzyme, UniProt P17050 18-411, monoglucosylated N-glycans (reglucosylated by UGGT2; sites not stated)) LDNGLLQTPPMGWLAWERFRCNINCDEDPKNCISEQLFMEMADRMAQDGWRDMGYTYLNIDDCWIGGRDASGRLMPDPKRFPHGIPFLADYVHSLGLKLGIYADMGNFTCMGYPGTTLDKVVQDAQTFAEWKVDMLKLDGCFSTPEERAQGYPKMAAALNATGRPIAFSCSWPAYEGGLPPRVNYSLLADICNLWRNYDDIQDSWWSVLSILNWFVEHQDILQPVAGPGHWNDPDMLLIGNFGLSLEQSRAQMALWTVLAAPLLMSTDLRTISAQNMDILQNPLMIKINQDPLGIQGRRIHKEKSLIEVYMRPLSNKASALVFFSCRTDMPYRYHSSLGQLNFTGSVIYEAQDVYSGDIISGLRDETNFTVIINPSGVVMWYLYPIKNLEMSQQ
binds	arylsulfatase A (enzyme, UniProt P15289 19-507, monoglucosylated N-glycans (reglucosylated by UGGT2; sites not stated)) RPPNIVLIFADDLGYGDLGCYGHPSSTTPNLDQLAAGGLRFTDFYVPVSLCTPSRAALLTGRLPVRMGMYPGVLVPSSRGGLPLEEVTVAEVLAARGYLTGMAGKWHLGVGPEGAFLPPHQGFHRFLGIPYSHDQGPCQNLTCFPPATPCDGGCDQGLVPIPLLANLSVEAQPPWLPGLEARYMAFAHDLMADAQRQDRPFFLYYASHHTHYPQFSGQSFAERSGRGPFGDSLMELDAAVGTLMTAIGDLGLLEETLVIFTADNGPETMRMSRGGCSGLLRCGKGTTYEGGVREPALAFWPGHIAPGVTHELASSLDLLPTLAALAGAPLPNVTLDGFDLSPLLLGTGKSPRQSLFFYPSYPDEVRGVFAVRTGKYKAHFFTQGSAHSDTTADPACHASSSLTAHEPPLLYDLSKDPGENYNLLGGVAGATPEVLQALKQLQLLKAQLDAAVTFGPSQVARGEDPALQICCHPGCTPRPACCHCPDPHA
binds	scavenger receptor class B member 1 (SR-BI) (receptor, UniProt Q8WTV0 1-552, monoglucosylated N-glycans (reglucosylated by UGGT1; sites not stated)) MGCSAKARWAAGALGVAGLLCAVLGAVMIVMVPSLIKQQVLKNVRIDPSSLSFNMWKEIPIPFYLSVYFFDVMNPSEILKGEKPQVRERGPYVYREFRHKSNITFNNNDTVSFLEYRTFQFQPSKSHGSESDYIVMPNILVLGAAVMMENKPMTLKLIMTLAFTTLGERAFMNRTVGEIMWGYKDPLVNLINKYFPGMFPFKDKFGLFAELNNSDSGLFTVFTGVQNISRIHLVDKWNGLSKVDFWHSDQCNMINGTSGQMWPPFMTPESSLEFYSPEACRSMKLMYKESGVFEGIPTYRFVAPKTLFANGSIYPPNEGFCPCLESGIQNVSTCRFSAPLFLSHPHFLNADPVLAEAVTGLHPNQEAHSLFLDIHPVTGIPMNCSVKLQLSLYMKSVAGIGQTGKIEPVVLPLLWFAESGAMEGETLHTFYTQLVLMPKVMHYAQYVLLALGCVLLLVPVICQIRSQVGAGQRAARADSHSLACWGKGASDRTLWPTAAWSPPPAAVLRLCRSGSGHCWGLRSTLASFACRVATTLPVLEGLGPSLGGGTGS
binds	alpha-galactosidase A (enzyme, UniProt P06280 32-429, monoglucosylated N-glycans (reglucosylated by the UGGTs; sites not stated)) LDNGLARTPTMGWLHWERFMCNLDCQEEPDSCISEKLFMEMAELMVSEGWKDAGYEYLCIDDCWMAPQRDSEGRLQADPQRFPHGIRQLANYVHSKGLKLGIYADVGNKTCAGFPGSFGYYDIDAQTFADWGVDLLKFDGCYCDSLENLADGYKHMSLALNRTGRSIVYSCEWPLYMWPFQKPNYTEIRQYCNHWRNFADIDDSWKSIKSILDWTSFNQERIVDVAGPGGWNDPDMLVIGNFGLSWNQQVTQMALWAIMAAPLFMSNDLRHISPQAKALLQDKDVIAINQDPLGKQGYQLRQGDNFEVWERPLSGLAWAVAMINRQEIGGPRSYTIAVASLGKGVACNPACFITQLLPVKRKLGFYEWTSRLRSHINPTGTVLLQLENTMQMSLKDLL
binds	Prosaposin (protein, UniProt P07602 17-524, monoglucosylated N-glycans (reglucosylated by the UGGTs; sites not stated)) GPVLGLKECTRGSAVWCQNVKTASDCGAVKHCLQTVWNKPTVKSLPCDICKDVVTAAGDMLKDNATEEEILVYLEKTCDWLPKPNMSASCKEIVDSYLPVILDIIKGEMSRPGEVCSALNLCESLQKHLAELNHQKQLESNKIPELDMTEVVAPFMANIPLLLYPQDGPRSKPQPKDNGDVCQDCIQMVTDIQTAVRTNSTFVQALVEHVKEECDRLGPGMADICKNYISQYSEIAIQMMMHMQPKEICALVGFCDEVKEMPMQTLVPAKVASKNVIPALELVEPIKKHEVPAKSDVYCEVCEFLVKEVTKLIDNNKTEKEILDAFDKMCSKLPKSLSEECQEVVDTYGSSILSILLEEVSPELVCSMLHLCSGTRLPALTVHVTQPKDGGFCEVCKKLVGYLDRNLEKNSTKQEILAALEKGCSFLPDPYQKQCDQFVAEYEPVLIEILVEVMDPSFVCLKIGACPSAHKPLLGTEKCIWGPSYWCQNTETAAQCNAVEHCKRHVWN
